Laboratory results reported in publication PMC7819943, “Rice protein-binding microarrays: a tool to detect cis-acting elements near promoter regions in rice”.
The other results are listed elsewhere or left out.

Chains of the proteins cited; added tags and fusions are not shown.
UniProt Q0JBA9, entry or part of it: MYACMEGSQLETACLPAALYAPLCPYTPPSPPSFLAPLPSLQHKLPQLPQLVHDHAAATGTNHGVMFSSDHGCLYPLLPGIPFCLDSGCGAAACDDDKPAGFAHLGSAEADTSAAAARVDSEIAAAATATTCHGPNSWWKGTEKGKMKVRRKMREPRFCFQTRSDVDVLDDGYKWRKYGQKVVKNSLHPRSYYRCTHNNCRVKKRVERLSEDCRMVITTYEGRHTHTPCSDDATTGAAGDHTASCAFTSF

These sequences were tested against OsWRKY34 (Oryza sativa, UniProt Q0JBA9 1-250) (assay: protein-binding microarray (RPBM); PBS, 2% BSA, 51.3 ng/ul salmon testes DNA, 50 uM zinc acetate, 200 nM TF, 25 C, 1 h; high values mean tight binding). Settings: protein: recombinant; tags: N-terminal polyhistidine and DsRed monomer fusion (pET32a); label: CyDye5-dUTP incorporated in the synthesized complementary strand; 3' TTTTT single-stranded linker to array surface; dsDNA, one strand shown.
In short: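 Per-feature fluorescence intensity (arbitrary units), read on an Axon 4000B scanner, is the binding signal. Transcription factors carrying an N-terminal polyhistidine tag and DsRed fusion were expressed in E. coli BL21-CodonPlus and purified on Ni–NTA. A custom Agilent array, made double-stranded by primer extension with Cy5-dUTP and blocked with 2% BSA, was incubated with 200 nM protein in PBS, 2% BSA, salmon testes DNA and 50 µM zinc acetate at 25 °C for 1 h and then washed.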
“GCATTTTTTTTCCAAATACTCTTGTTACTCACAGTCTCCGCGGAGTCACCTAGTGCAG” was tested, and the binding signal was 8760 fluorescence intensity (a.u.).
In the case of “AGAACTCTACATGTCTCTTAAATGACCATTCCCGTCTAGGCGGAGTCACCTAGTGCAG”, the binding signal is reported as 8500 fluorescence intensity (a.u.).
“CGGACCCCATACACCTCCGCCCGATTCCCGACGCAAATCCCGGAGTCACCTAGTGCAG” was tested, and the binding signal was 9260 fluorescence intensity (a.u.).
For “ACATCCATCCTGGTGAGCACATCCTCCGCCACCGCCGACCCGGAGTCACCTAGTGCAG”, the binding signal was 9140 fluorescence intensity (a.u.).
For “TCCCCTTCGCCCTTCGTCGTCGTCGTCGTCGTCGTTCGTCCGGAGTCACCTAGTGCAG”, the binding signal was 8050 fluorescence intensity (a.u.).
With “TGTATGTTGAGCTTTAGGTATTTAATGGGTATTAGCTTTACGGAGTCACCTAGTGCAG” the binding signal was 8090 fluorescence intensity (a.u.).
“CTAGCTTCTGTCTTGATTCATTTGCTCATAGGCCTATCTTCGGAGTCACCTAGTGCAG” was tested, and the binding signal was 12800 fluorescence intensity (a.u.).
“AACATCTCTAGTCTTGTAATACTTTATCTCTAATTGTTCACGGAGTCACCTAGTGCAG” was tested, and the binding signal was 9460 fluorescence intensity (a.u.).
For “GACCTTTTTACTTACATATTGTTTTTGGCCATAGATTATTCGGAGTCACCTAGTGCAG”, the binding signal was 9630 fluorescence intensity (a.u.).
“ACAAACGTTTGACCATTCGTTTTATTCAAAATTTTTGTGCCGGAGTCACCTAGTGCAG” was tested, and the binding signal was 8960 fluorescence intensity (a.u.).
“GGGTGGGAGGGATTCGTATGGCGTCGCCGGAGGAGAGCGCCGGAGTCACCTAGTGCAG” was tested, and the binding signal was 10100 fluorescence intensity (a.u.).
In the case of “ACATTTCTCTCTATTTTTCCTAGCAGATAAACGCAATGTACGGAGTCACCTAGTGCAG”, the binding signal is reported as 10200 fluorescence intensity (a.u.).
For “CGCACGGTTGTTCTCGCCATGATCCTCCTTGCCGCTGTCACGGAGTCACCTAGTGCAG”, the binding signal was 8780 fluorescence intensity (a.u.).
With “TTTCTCCTCACCAAGCTGACCACTCTCTGGAAGCATCAGCCGGAGTCACCTAGTGCAG” the binding signal was 8500 fluorescence intensity (a.u.).
“GCCAAGCTCGCCAATTCGCACATGCCTCCATTGTCACACACGGAGTCACCTAGTGCAG” was tested, and the binding signal was 8870 fluorescence intensity (a.u.).
With “GATTTTTTTTTCTTACTGTTTTTGCAGGGGCTGGGCATGACGGAGTCACCTAGTGCAG” the binding signal was 11400 fluorescence intensity (a.u.).
“CCTCCTCCTCACGCCACTGTCGTCGTCGTGTTCCTCTTTCCGGAGTCACCTAGTGCAG” was tested, and the binding signal was 8800 fluorescence intensity (a.u.).
“TACATAAACTTTCAATTTTTTCCTTCAAACTTACAATTTTCGGAGTCACCTAGTGCAG” was tested, and the binding signal was 8670 fluorescence intensity (a.u.).
In the case of “GCAGGGGCGGGCCCACAATGATTCATGGGTATTCAAATGACGGAGTCACCTAGTGCAG”, the binding signal is reported as 9020 fluorescence intensity (a.u.).
With “TCTGTTCTAAAACCACAGACCATCCTCTTTTATCATTTCACGGAGTCACCTAGTGCAG” the binding signal was 8340 fluorescence intensity (a.u.).
In the case of “TTGCATCAGGATCACTCTCGTCTTCTTCGCTGTTGTTTTGCGGAGTCACCTAGTGCAG”, the binding signal is reported as 13900 fluorescence intensity (a.u.).
For “CCCGCACGCCACCACCTCACCCACCTATCCACGTCAACTCCGGAGTCACCTAGTGCAG”, the binding signal was 12100 fluorescence intensity (a.u.).
“CAGTTAGGGGTGGGCATTCGGTCAGACCGAAAAATTCGGTCGGAGTCACCTAGTGCAG” was tested, and the binding signal was 15500 fluorescence intensity (a.u.).
With “CGTTTTTCTATTGTGTTATCTCTGACCGCTGGAAATTCAACGGAGTCACCTAGTGCAG” the binding signal was 9220 fluorescence intensity (a.u.).
In the case of “TATTGGTGTTTGGTTGGTCTATACAGGAAGTGGTAGTACACGGAGTCACCTAGTGCAG”, the binding signal is reported as 8830 fluorescence intensity (a.u.).
“CGGGCTCTGTGTGATCTTAGCCGCTCCGCCGCCACTCACTCGGAGTCACCTAGTGCAG” was tested, and the binding signal was 8270 fluorescence intensity (a.u.).
“GAGCACCCATGCGGTATTGAATGTGTATCTTTTTTTTACACGGAGTCACCTAGTGCAG” was tested, and the binding signal was 9190 fluorescence intensity (a.u.).
“CCATCGTTTCTCCCCGACGCCCTCGCCATCCTCCTCGCCACGGAGTCACCTAGTGCAG” was tested, and the binding signal was 10500 fluorescence intensity (a.u.).
In the case of “GAGTGGTTTTTCTTTTACTTTCTCTTTTCCCCTTTTCAATCGGAGTCACCTAGTGCAG”, the binding signal is reported as 12300 fluorescence intensity (a.u.).
For “ATCTCTCTAGCTCCTTGTATCGGGCAACACATTCCTTGATCGGAGTCACCTAGTGCAG”, the binding signal was 9660 fluorescence intensity (a.u.).
With “CCTTGATCGTATGCTTCTTACCCATAGCGCTTGTGATCACCGGAGTCACCTAGTGCAG” the binding signal was 11900 fluorescence intensity (a.u.).
In the case of “CGTTTTTTTTTCAAAATTTTGACCACTAATAGCTTCTCAACGGAGTCACCTAGTGCAG”, the binding signal is reported as 10300 fluorescence intensity (a.u.).
“CATTGGTAATTTTGTATAGTGCTTCTATATGTTTAGATTGCGGAGTCACCTAGTGCAG” was tested, and the binding signal was 8970 fluorescence intensity (a.u.).
With “GGGTTTAAGGGTTGGTTTGGTTTATGGTCTAGATAGGTCTCGGAGTCACCTAGTGCAG” the binding signal was 10100 fluorescence intensity (a.u.).
With “TCCACAACTGATTTTATTCCGACTTGTTTTTTTTTCTTTTCGGAGTCACCTAGTGCAG” the binding signal was 10800 fluorescence intensity (a.u.).
For “GATTATTTTTTTTCCAGATTTTCCTGTTTCGCTTTAACTTCGGAGTCACCTAGTGCAG”, the binding signal was 9920 fluorescence intensity (a.u.).
With “GTGTGCGCTTTCTGATTCTGTCGGGTTCCTTTCAGATGCACGGAGTCACCTAGTGCAG” the binding signal was 10100 fluorescence intensity (a.u.).
In the case of “CCACCTATAAATATTGCATCGATCAACTCAAGTTGTCATCCGGAGTCACCTAGTGCAG”, the binding signal is reported as 8420 fluorescence intensity (a.u.).
In the case of “TAAATACGCCCTCGCCGTCTCCTCGCCGACCTCTCTCCGTCGGAGTCACCTAGTGCAG”, the binding signal is reported as 8100 fluorescence intensity (a.u.).
In the case of “CCGCCGTCGTTCCGCCCACAGCTGCGCTCACCTACCGCCGCGGAGTCACCTAGTGCAG”, the binding signal is reported as 8650 fluorescence intensity (a.u.).
“ACTATCAGGTCTTGAAATCATTTATTGCTCCTTCTGAATTCGGAGTCACCTAGTGCAG” was tested, and the binding signal was 8790 fluorescence intensity (a.u.).
With “TGCCAACACTTTCTGTTCCCAACATGTATTATTAGAACACCGGAGTCACCTAGTGCAG” the binding signal was 9300 fluorescence intensity (a.u.).
